# Laboratory results: the supplement of paper PMC9135407
# Values joined by “and” are separate entries in the source; they are usually repeats but may differ in a detail not shown here. Equal values may be shown once. Where a name gives a salt, the structure may show the parent alone. ± gives the standard deviation of the averaged measurements. This is one part of the list. Part of the spread comes from offsets between plates or batches.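 Culture-activated primary human stellate myofibroblasts, where regained lipid droplets signal inactivation. Value: share of Hoechst-counted cells above a per-plate Bodipy cutoff, in duplicate wells, with DMSO negative and nortriptyline positive controls on each plate. Hits: a control-normalized score above the plate's top-tenth-percentile nortriptyline wells, or one of a plate's three best wells. Final well concentrations are not given.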
# Tested on: primary human hepatic stellate cells (donor 1)
# Assay: percent Bodipy-positive cells; higher = more lipid droplet accumulation
# Details: 48 h
# Description: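 Primary lipid accumulation screen in primary human hepatic stellate cell myofibroblasts (donor 1, passage 8) in 384-well plates. 100 nL of library compound was pin-transferred into 30 µL medium in duplicate, and cells were treated for 48 h. The 'Scaled' score combines distance from plate baseline, toxicity and reproducibility penalties, and is normalised to nortriptyline (positive) and DMSO (negative) controls on each plate. A hit is defined as scaled >0.85 or among the top 3 wells per plate.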
# [1] = library stock concentration: 3.33 mM
# [2] = library stock concentration: 10 mM
# [3] = library stock concentration: 80 uM
# [4] = library stock concentration: 400 uM
# [5] = library stock concentration: 2 mM
# [6] = library stock concentration: 1 mM
compound,measurement,setting,value
Cc1[nH]c2ccccc2c1CCNC(=O)c1cccs1,percent Bodipy-positive cells,[1],38 ± 5%
same,percent Bodipy-positive cells,[2],42.4 ± 9.7%
CCC(=O)c1ccc2c(c1)N(CCCN(C)C)c1ccccc1S2.Cl [Propionylpromazine hydrochloride],percent Bodipy-positive cells,[2],93.1 ± 1.1%
CC(=O)Nc1cc2ccccc2oc1=O [3-Acetamidocoumarin],percent Bodipy-positive cells,,7.13 ± 2.4%
CC(C)n1cnc2c(NCc3ccccc3)nc(NCCCO)nc21 [Bohemine],percent Bodipy-positive cells,[3],8.53 ± 0.093%
same,percent Bodipy-positive cells,[4],9.1 ± 2.1%
same,percent Bodipy-positive cells,[5],16.3 ± 6.6%
same,percent Bodipy-positive cells,[1],11.3 ± 4.3%
same,percent Bodipy-positive cells,[2],29.4 ± 2.7%
N#Cc1c(O)c2c(-c3ccc(-c4ccccc4O)cc3)csc2[nH]c1=O,percent Bodipy-positive cells,[1],6.96 ± 0.91%
same,percent Bodipy-positive cells,[2],12.1% and 6.58%
COc1cc2c(Nc3ccc(Br)cc3F)ncnc2cc1OCC1CCN(C)CC1 [Vandetanib],percent Bodipy-positive cells,[5],79.7 ± 10%
same,percent Bodipy-positive cells,[2],96.8 ± 1.5%
Cc1nc2ccc(-n3ncc(C(=O)c4cc5ccccc5[nH]4)c3N)cc2[nH]1,percent Bodipy-positive cells,[3],10.39 ± 0.088%
same,percent Bodipy-positive cells,[4],12.1 ± 2.2%
same,percent Bodipy-positive cells,[5],11 ± 1.1%
CCCCC(=O)O[C@H]1CC[C@H]2[C@@H]3CCc4cc(O)ccc4[C@H]3CC[C@]12C [Estradiol valerate],percent Bodipy-positive cells,[1],20.2 ± 5%
CCCCC(=O)O[C@H]1CC[C@H]2[C@@H]3CCc4cc(O)ccc4[C@H]3CC[C@]12C,percent Bodipy-positive cells,[2],78.1 ± 23%
O=[N+]([O-])c1ccccc1S(=O)(=O)NCC1CCC(CNCC2CCc3ccccc3C2)CC1 (stereo not drawn) [NTNCB hydrochloride],percent Bodipy-positive cells,[2],96.4 ± 2%
Cc1ccc(Nc2c(F)cccc2Cl)c(CC(=O)O)c1,percent Bodipy-positive cells,[2],34.5 ± 9.1%
Cc1ccc(Nc2c(F)cccc2Cl)c(CC(=O)O)c1 [Lumiracoxib],percent Bodipy-positive cells,[1],15.8 ± 8%
same,percent Bodipy-positive cells,[2],27.8 ± 6.7%
COc1cc2ncnc(Nc3ccc(F)c(Cl)c3)c2cc1OCCCN1CCOCC1 [Iressa],percent Bodipy-positive cells,[2],65.1 ± 9.5%
CCCCCCCCCCCCCCCC(=O)OC [Palmitic Acid methyl ester],percent Bodipy-positive cells,[6],6.763 ± 0.042%
CCCCCC(O)C=CC1C(O)CC(O)C1CC=CCCCC(=O)O (stereo not drawn) [8-epi-Prostaglandin F2a],percent Bodipy-positive cells,[6],13.6 ± 13%
O=c1cc(-c2cccc3c2Sc2ccccc2S3)oc(N2CCOCC2)c1,percent Bodipy-positive cells,[3],8.13 ± 0.52%
same,percent Bodipy-positive cells,[4],12.5% and 11.9%
same,percent Bodipy-positive cells,[5],16% and 22.4%
same,percent Bodipy-positive cells,[1],8.09 ± 3.4%
CCCCC[C@H](O)/C=C/[C@@H]1[C@@H](C/C=C\CCCC(=O)N(C)C)[C@@H](O)C[C@H]1O [Prostaglandin F2.alpha. dimethyl amide],percent Bodipy-positive cells,[6],12.9 ± 2.1%
Fc1ccc(C(c2ccc(F)cc2)N2CCN(C/C=C/c3ccccc3)CC2)cc1 [Flunarizine hydrochloride],percent Bodipy-positive cells,[2],42.7 ± 1%
Fc1ccc(C(c2ccc(F)cc2)N2CCN(C/C=C/c3ccccc3)CC2)cc1 [Flunarizine 2HCl],percent Bodipy-positive cells,[1],22.3 ± 0.82%
same,percent Bodipy-positive cells,[2],45 ± 7.1%
Fc1ccc(C(c2ccc(F)cc2)N2CCN(C/C=C/c3ccccc3)CC2)cc1 [Flunarizine dihydrochloride],percent Bodipy-positive cells,,37.8 ± 11%
Fc1ccc(C(c2ccc(F)cc2)N2CCN(C/C=C/c3ccccc3)CC2)cc1 [Flunarizine-2HCl],percent Bodipy-positive cells,library stock concentration: 4.9 mM,19.6 ± 1.1%
Oc1ccc([C@H]2COc3cc(O)ccc3C2)cc1 [(?)-Equol],percent Bodipy-positive cells,[6],14.1 ± 3.4%
Oc1ccc([C@H]2COc3cc(O)ccc3C2)cc1 [Equol],percent Bodipy-positive cells,[1],8.91 ± 0.51%
same,percent Bodipy-positive cells,[2],26.3 ± 6.1%
CN1CCc2c(c3ccccc3n2Cc2ccccc2)C1 [Mebhydrolin naphthalenesulfonate],percent Bodipy-positive cells,[2],29.9 ± 2.1%
CCCCCCCCCCOc1ccc(OCC(=O)Cn2cc(C(=O)OC)c3cc(C(=O)O)ccc32)cc1,percent Bodipy-positive cells,[6],11.3 ± 2.8%
CCCCC[C@H](O)/C=C/[C@H]1[C@H](O)CC(=O)[C@H]1C/C=C\CCCC(=O)OC(C)C [8-iso Prostaglandin E2 isopropyl ester],percent Bodipy-positive cells,[6],13.6 ± 0.34%
CN[C@@H]1[C@H](O[C@H]2[C@H](O[C@H]3[C@H](O)[C@@H](O)[C@H](N=C(N)N)[C@@H](O)[C@@H]3N=C(N)N)O[C@@H](C)[C@]2(O)C=O)O[C@@H](CO)[C@H](O)[C@H]1O [Streptomycin sulfate],percent Bodipy-positive cells,,35.6 ± 15%
same,percent Bodipy-positive cells,library stock concentration: 2.9 mM,16 ± 0.61%
same,percent Bodipy-positive cells,[2],17.3 ± 2.9%
Cc1cccc(C(=O)O)c1O,percent Bodipy-positive cells,[2],26.8 ± 7.7%
O=C(C=Cc1ccccc1)NC(NC(=S)Nc1ccc(Cl)cc1)C(Cl)(Cl)Cl (stereo not drawn),percent Bodipy-positive cells,[3],8.77 ± 5%
same,percent Bodipy-positive cells,[4],9.19 ± 0.91%
same,percent Bodipy-positive cells,[5],16.2 ± 3.7%
same,percent Bodipy-positive cells,[1],61.1 ± 7.6%
same,percent Bodipy-positive cells,[2],100% and 87.3%
Oc1cccc(-c2nc(N3CCOCC3)c3sccc3n2)c1 [PI3-Kinase .alpha. Inhibitor 2],percent Bodipy-positive cells,[6],18.7 ± 17%
Nc1nc(Cl)nc2c1ncn2[C@H]1C[C@H](O)[C@@H](CO)O1,percent Bodipy-positive cells,[2],15 ± 2.1%
Nc1nc(Cl)nc2c1ncn2[C@H]1C[C@H](O)[C@@H](CO)O1 [Cladribine],percent Bodipy-positive cells,[1],10.2 ± 2.7%
same,percent Bodipy-positive cells,[2],23.7 ± 2.3%
Cc1cc(C=C2C(=O)C=CC2=O)cc(C)c1O,percent Bodipy-positive cells,[2],87.8 ± 6.3%
N=C(N)NC(=N)Nc1ccccc1 [1-Phenylbiguanide hydrochloride],percent Bodipy-positive cells,[2],9.41 ± 2.4%
NCCNC(=O)c1ccc(Cl)cn1 [Lazabemide hydrochloride],percent Bodipy-positive cells,[2],8.16 ± 0.93%
CC(C)N1Cc2cc(S(C)(=O)=O)ccc2N(CCN2CC=C(c3c[nH]c4cc(F)ccc34)CC2)S1(=O)=O,percent Bodipy-positive cells,[2],16.7 ± 1.7%
CCCCC/C=C\C/C=C\CC/C=C\CCCC(=O)OC [Pinolenic Acid methyl ester],percent Bodipy-positive cells,[6],7.66 ± 3.1%
CCC(=O)O[C@@H](O[P@](=O)(CCCCc1ccccc1)CC(=O)N1C[C@H](C2CCCCC2)C[C@H]1C(=O)O)C(C)C [Fosinopril],percent Bodipy-positive cells,library stock concentration: 3.5 mM,7.37 ± 3.3%
COc1cccc2c1C(=O)c1c(O)c3c(c(O)c1C2=O)C[C@@](O)(C(=O)CO)C[C@@H]3O[C@H]1C[C@H](N)[C@H](O)[C@H](C)O1 [Doxorubicin (Adriamycin)],percent Bodipy-positive cells,[1],100%
same,percent Bodipy-positive cells,[2],50 ± 71%
COc1cccc2c1C(=O)c1c(O)c3c(c(O)c1C2=O)C[C@@](O)(C(=O)CO)C[C@@H]3O[C@H]1C[C@H](N)[C@H](O)[C@H](C)O1 [Doxorubicin],percent Bodipy-positive cells,library stock concentration: 8.6 mM,100%
COc1cccc2c1C(=O)c1c(O)c3c(c(O)c1C2=O)C[C@@](O)(C(=O)CO)C[C@@H]3O[C@H]1C[C@H](N)[C@H](O)[C@H](C)O1 [Doxorubicin hydrochloride],percent Bodipy-positive cells,,100%
same,percent Bodipy-positive cells,[2],50 ± 71%
COc1cccc2c1C(=O)c1c(O)c3c(c(O)c1C2=O)C[C@@](O)(C(=O)CO)C[C@@H]3O[C@H]1C[C@H](N)[C@H](O)[C@H](C)O1,percent Bodipy-positive cells,[2],87.5 ± 18%
Cn1cnc2c(NCc3ccccc3)nc(NCCO)nc21 [Olomoucine],percent Bodipy-positive cells,[6],12.9 ± 0.96%
same,percent Bodipy-positive cells,library stock concentration: 16.8 mM,25.15 ± 0.22%
Cc1cc(C(=O)NOCCO)c(Nc2ccc(I)cc2F)n(C)c1=O,percent Bodipy-positive cells,[3],11.9 ± 1.5%
same,percent Bodipy-positive cells,[4],11 ± 1.9%
same,percent Bodipy-positive cells,[5],8.15 ± 1.8%
same,percent Bodipy-positive cells,[1],5.6 ± 2.7%
same,percent Bodipy-positive cells,[2],9.69% and 11.4%

# 19 entries from above, bar-delimited:
compound | measurement | setting | value
CC(C)n1cnc2c(NCc3ccccc3)nc(NCCCO)nc21 [Bohemine] | percent Bodipy-positive cells | [3] | 8.53 ± 0.093%
same | percent Bodipy-positive cells | [5] | 16.3 ± 6.6%
COc1cc2c(Nc3ccc(Br)cc3F)ncnc2cc1OCC1CCN(C)CC1 [Vandetanib] | percent Bodipy-positive cells | [5] | 79.7 ± 10%
same | percent Bodipy-positive cells | [2] | 96.8 ± 1.5%
Cc1nc2ccc(-n3ncc(C(=O)c4cc5ccccc5[nH]4)c3N)cc2[nH]1 | percent Bodipy-positive cells | [4] | 12.1 ± 2.2%
O=[N+]([O-])c1ccccc1S(=O)(=O)NCC1CCC(CNCC2CCc3ccccc3C2)CC1 (stereo not drawn) [NTNCB hydrochloride] | percent Bodipy-positive cells | [2] | 96.4 ± 2%
CCCCCC(O)C=CC1C(O)CC(O)C1CC=CCCCC(=O)O (stereo not drawn) [8-epi-Prostaglandin F2a] | percent Bodipy-positive cells | [6] | 13.6 ± 13%
Oc1ccc([C@H]2COc3cc(O)ccc3C2)cc1 [(?)-Equol] | percent Bodipy-positive cells | [6] | 14.1 ± 3.4%
Oc1ccc([C@H]2COc3cc(O)ccc3C2)cc1 [Equol] | percent Bodipy-positive cells | [2] | 26.3 ± 6.1%
CCCCC[C@H](O)/C=C/[C@H]1[C@H](O)CC(=O)[C@H]1C/C=C\CCCC(=O)OC(C)C [8-iso Prostaglandin E2 isopropyl ester] | percent Bodipy-positive cells | [6] | 13.6 ± 0.34%
CN[C@@H]1[C@H](O[C@H]2[C@H](O[C@H]3[C@H](O)[C@@H](O)[C@H](N=C(N)N)[C@@H](O)[C@@H]3N=C(N)N)O[C@@H](C)[C@]2(O)C=O)O[C@@H](CO)[C@H](O)[C@H]1O [Streptomycin sulfate] | percent Bodipy-positive cells |  | 35.6 ± 15%
same | percent Bodipy-positive cells | [2] | 17.3 ± 2.9%
O=C(C=Cc1ccccc1)NC(NC(=S)Nc1ccc(Cl)cc1)C(Cl)(Cl)Cl (stereo not drawn) | percent Bodipy-positive cells | [3] | 8.77 ± 5%
Cc1cc(C=C2C(=O)C=CC2=O)cc(C)c1O | percent Bodipy-positive cells | [2] | 87.8 ± 6.3%
CC(C)N1Cc2cc(S(C)(=O)=O)ccc2N(CCN2CC=C(c3c[nH]c4cc(F)ccc34)CC2)S1(=O)=O | percent Bodipy-positive cells | [2] | 16.7 ± 1.7%
COc1cccc2c1C(=O)c1c(O)c3c(c(O)c1C2=O)C[C@@](O)(C(=O)CO)C[C@@H]3O[C@H]1C[C@H](N)[C@H](O)[C@H](C)O1 [Doxorubicin (Adriamycin)] | percent Bodipy-positive cells | [2] | 50 ± 71%
COc1cccc2c1C(=O)c1c(O)c3c(c(O)c1C2=O)C[C@@](O)(C(=O)CO)C[C@@H]3O[C@H]1C[C@H](N)[C@H](O)[C@H](C)O1 [Doxorubicin hydrochloride] | percent Bodipy-positive cells |  | 100%
Cn1cnc2c(NCc3ccccc3)nc(NCCO)nc21 [Olomoucine] | percent Bodipy-positive cells | library stock concentration: 16.8 mM | 25.15 ± 0.22%
Cc1cc(C(=O)NOCCO)c(Nc2ccc(I)cc2F)n(C)c1=O | percent Bodipy-positive cells | [2] | 9.69% and 11.4%
